## Primary screen of a compound library

Sequences of proteins named here, by UniProt entry; tags and fusion partners are left off.
UniProt E9BF75, entry or part of it: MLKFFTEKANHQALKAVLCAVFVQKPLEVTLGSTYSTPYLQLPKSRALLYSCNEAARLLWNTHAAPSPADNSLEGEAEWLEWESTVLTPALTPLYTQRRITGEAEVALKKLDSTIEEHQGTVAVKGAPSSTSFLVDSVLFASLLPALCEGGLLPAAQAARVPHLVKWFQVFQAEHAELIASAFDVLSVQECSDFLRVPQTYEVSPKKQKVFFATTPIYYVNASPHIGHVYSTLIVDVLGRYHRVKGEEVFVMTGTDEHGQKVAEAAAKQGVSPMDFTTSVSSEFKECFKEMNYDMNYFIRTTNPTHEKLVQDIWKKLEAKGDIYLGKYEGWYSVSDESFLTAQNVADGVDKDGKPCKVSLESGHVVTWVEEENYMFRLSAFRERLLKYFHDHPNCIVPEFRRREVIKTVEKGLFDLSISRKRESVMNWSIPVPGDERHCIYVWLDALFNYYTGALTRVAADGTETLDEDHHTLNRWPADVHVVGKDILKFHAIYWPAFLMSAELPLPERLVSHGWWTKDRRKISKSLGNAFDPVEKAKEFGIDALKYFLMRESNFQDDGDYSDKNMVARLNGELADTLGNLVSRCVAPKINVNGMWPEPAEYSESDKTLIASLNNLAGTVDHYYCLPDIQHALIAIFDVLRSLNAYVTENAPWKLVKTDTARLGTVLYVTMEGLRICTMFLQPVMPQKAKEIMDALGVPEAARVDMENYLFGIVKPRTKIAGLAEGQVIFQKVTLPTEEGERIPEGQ

All values are in %.
The record does not define 0% and 100%; most values in the screen are far below 50% and negative numbers occur (in some assays of this library far below -100).
Compounds were drawn at random from those tested, without regard to their results.
A dash means the value is not listed here; it may have been measured.

LdMetRS: 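Primary screen of methionyl-tRNA synthetase; the read-out is not stated. Target: Methionyl-tRNA synthetase (putative), Leishmania donovani (UniProt E9BF75). The test concentration is not given. The values are filed as inhibition. Size under these conditions: about 68,000 compounds, about 24 of them at 50% or above in at least one test.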
Mtb heat-shock: 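Assay on Mycobacterium tuberculosis, filed only as a heat shock assay from Cornell; the read-out is not stated. The concentration is filed as 10 mM, unlikely as a test dose, so the dose is not known. The record gives no direction; compounds that gave an IC50 in retests scored well above the rest, so higher reads as stronger inhibition. About 69,000 compounds were tested under these conditions; 1.4% (about 930) showed 50% or more at least once.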

compound	LdMetRS	Mtb heat-shock
NC(=O)C1CCN(C(=O)NC(Cc2ccccc2)C(F)(F)F)CC1 (stereo not shown)	16.67	-3.441
O=C(CN1CCN(CC2CCOc3ccccc3C2)CC1)N1CCCC1 (stereo not shown)	6.452	-19.08
O=C(NCCNc1cccnc1)C(c1cccnc1)N1CCCC1 (stereo not shown)	17.71	4.518
CN(C)CCOCC1CN(C(=O)c2cccnc2)Cc2ccnn2C1 (stereo not shown)	14.07	2.12
COc1ccccc1C(NC(=O)C1CCC1)c1noc(C)n1 (stereo not shown)	14.64	-14.81
Cn1cnc(S(=O)(=O)N2CCCC2c2ccnc3nccn23)c1 (stereo not shown)	-12.79	-11.69
O=C(CC1CCN(c2cccnn2)CC1)Nc1cccnc1	16.19	-2.948
Cc1nc(NC(=O)C(C)N2CCN(c3ncccn3)CC2)sc1C (stereo not shown)	15.38	20.75
CCSCc1cccc(NCc2cccnc2)c1	6.504	-16.09
Cc1n[nH]c(C2CN(C(=O)CCc3ccsc3)CCO2)n1 (stereo not shown)	5.419	40.94
Cn1nc(-c2cccc(Cl)c2)c(Br)c1C(=O)O	-2.121	-21.18
CC(C)NC(=O)c1ccc2nnc(C3CN(C)CCN3C)n2c1.O=C(O)C(F)(F)F.O=C(O)C(F)(F)F (stereo not shown)	-	-14.07
CN(CCO)Cc1nnc(C2CCN(C(=O)C3CCOCC3)CC2)n1C	5.028	-9.343
CCCN1CCC(N2CCN(c3cc(C)nc(COC)n3)CC2)CC1	1.863	-22.57
Cc1cc(CN2CC[C@H]3OCC[C@@]3(C(=O)NCc3ccco3)C2)no1	15.56	-
Cc1ccc(C)c2c(O)cc(CN3CCC(c4nncn4C)CC3)nc12	9.524	-43.1
CC(C1CCN(C(=O)c2coc(CN3CCOCC3)c2)CC1)N(C)C (stereo not shown)	20.62	-41.61
O=C1CO[C@H]2CN(Cc3c[nH]c4ccccc34)C[C@H]2N1	4.396	-
CN(Cc1cccnc1)Cc1cn2c(n1)CN(C1CCOC1)CC2 (stereo not shown)	7.614	-
Cc1cc(C(=O)N2C[C@@H](C(=O)O)[C@H](c3ccccc3C)C2)c(C)o1	7.063	-5.635
O=C(O)C(F)(F)F.O=C(O)C(F)(F)F.[H][C@@]12CN(Cc3ccsc3)C[C@@]1([H])N(Cc1ccncc1)C(=O)CO2	-	1.203
O=C(O)C(F)(F)F.[H][C@@]12CCN(Cc3ccccc3)C[C@]1([H])[C@H](C(=O)N(C)C)CCO2	-	-8.014
Cn1cc(CN2C[C@@H]3COC[C@]3(CNC(=O)c3ccccc3)C2)cn1	20.46	-
COCCc1ncc(CN2C[C@H](C3CC3)[C@@H](N)C2)cn1	8.6	0.9846
Cc1cnn(CC2CCCN2C(=O)c2ccc3[nH]nnc3c2)c1 (stereo not shown)	4.861	-9.625
FC(F)(F)c1nnc2n1CCN(c1nc(C3CC3)ns1)C2	10.14	16.77
CC(=O)N1CCC(NC(=O)NCc2ncc(-c3ccccc3)o2)CC1	20.3	1.401
[H][C@@]12CCN(Cc3ccccc3)C[C@@]1([H])O[C@H](C(=O)NCC1CC1)C2	-	-7.34
N#Cc1ccccc1C(=O)N1C[C@@H](CN2CCCCC2)[C@@H](CO)C1	8.602	-9.755
Cc1ccc(N2CCC3(CCN(C(=O)c4ccsc4)CC3)C2)nn1	6.875	-45.52
CCCn1cnc(S(=O)(=O)Nc2cccnc2-n2cccn2)c1	10.53	-30.34
COc1ccc(Cl)cc1S(=O)(=O)N(C)CC(=O)Nc1ccccc1	4.732	2.103
COCC(=O)N1CCC2(CC1)CNc1ccc(F)cc12	14.29	-
Cc1ccccc1C1CCN(CCn2cc(-c3cccc(O)c3)nn2)C1 (stereo not shown)	7.447	72.96
Cc1nn(C)c(C)c1CCC(=O)N1CCCC(n2cccn2)C1 (stereo not shown)	6.983	-13.06
Cc1cc(C)n(C2CCCN(C(=O)CCNc3ncccn3)C2)n1 (stereo not shown)	15.38	-8.647
c1ccc(-c2ncc(CNC3CCc4ncnn4C3)cn2)cc1 (stereo not shown)	13.89	-11.12
[H][C@@]12CNC[C@]1([H])CN(C(=O)c1ccc(F)c(F)c1)C2	-	10.83
Cc1cnnn1Cc1ncn2c1CN(Cc1cccs1)CCC2.O=C(O)C(F)(F)F	-	1.772
Cc1ncc(CN(C)C(=O)Nc2ccc(CN3CCOC3=O)cc2)s1	14.54	20.66
O=C(O)C(F)(F)F.[H][C@@]12CCCO[C@]1([H])[C@@H](OCC(C)C)CN2Cc1scnc1C	-	-5.335
CNC(=O)c1cnc(/C=C/c2ccc(OC)c(O)c2)s1	15.24	31.56
CCOc1ccccc1-c1noc(CN2CCCC(O)C2)n1 (stereo not shown)	9.722	-17.61
CO[C@H]1CCN(Cc2ccccn2)[C@@H]2CN(Cc3ccco3)C[C@H]12	9.544	-
CC(C)c1nc(/C=C/c2ccc(O)c(Cl)c2)ncc1C(=O)O	11.18	5.506
Cc1n[nH]c2c1C(c1ccc(Cl)cc1)SCC(=O)N2 (stereo not shown)	-0.7752	11.03
CS(=O)(=O)Nc1cccc(CNC(=O)CCC(=O)c2cccs2)c1	10.76	36.34
COc1cc(NC2CCCN(c3ncccn3)C2)cc(OC)c1 (stereo not shown)	7.619	34.46
COC(=O)[C@@H]1CCCN1C(=O)c1cn(C/C=C/c2ccccc2)nn1	-2.011	-8.084
O=S(=O)(NCCCn1cncn1)c1ccc2c(c1)OCCCO2	7.588	-16.74
c1cncc(OCC2CN(Cc3nccs3)Cc3nccn3C2)c1 (stereo not shown)	3.562	-
O=C(O)C(F)(F)F.[H][C@]12CCN(C(=O)C3CC3)CC[C@@]1([H])S(=O)(=O)CCN2Cc1cccc(C)n1	-	-38.85
CCC1CN(CC(=O)NCCOC)CCO1 (stereo not shown)	10	-13.38
COc1cccc(N2CCN(C(=O)c3noc4c3CCCCC4)CC2)c1	18.08	7.875
CCS(=O)(=O)NC[C@]12COC[C@H]1CN(Cc1ccsc1)C2	7.299	-
CCn1ccnc1CN(C)C1CCCN(CCc2ccccc2)C1 (stereo not shown)	6.299	-18.18
CNC(=O)[C@@H](C1CCCCC1)N1CCC[C@H]1C(=O)N(C)CCN(C)C.Cl.Cl	-	-18.9
Cc1cc(NC2CCc3nc(C)nn3C2)n2ncnc2n1 (stereo not shown)	22.16	11.16
CCc1cc2cc(OC)c(OC)cc2nc1SCCN1CCCCC1.Cl	-	-12.6
OC(CN(Cc1ccccc1)Cc1cscn1)c1ccco1 (stereo not shown)	15.19	-2.613
CCn1ccnc1CN1CCN(C(C)C)CC1C (stereo not shown)	3.593	-14.95
CCOC(=O)CCC(=O)N1CCC(Oc2ccc(C(F)(F)F)cn2)CC1	20.59	10.76
COc1ncc(-c2nccn2CCN(C)C)cn1	6.884	-14.8
Cc1oncc1C(=O)NCc1cc(=O)n2c(n1)CN(C)CCC2.O=C(O)C(F)(F)F	-	1.803
NC(=O)c1cc2c(nc1CCOCc1ccccc1)CCC2	12.27	-19.33

The last 4 entries again:

compound,LdMetRS,Mtb heat-shock
CCOC(=O)CCC(=O)N1CCC(Oc2ccc(C(F)(F)F)cn2)CC1,20.59,10.76
COc1ncc(-c2nccn2CCN(C)C)cn1,6.884,-14.8
Cc1oncc1C(=O)NCc1cc(=O)n2c(n1)CN(C)CCC2.O=C(O)C(F)(F)F,-,1.803
NC(=O)c1cc2c(nc1CCOCc1ccccc1)CCC2,12.27,-19.33

Data taken from ChEMBL document CHEMBL3988442, “University of Dundee, Small-Polar-MMV Screening Library” (2021).